# Laboratory results: the supplement of paper PMC8728848
# The other results are listed elsewhere or left out.
# B1: AntigenI/IIA3VP1 (Streptococcus mutans), C9E3B4 (protein)
# chain: AANEADYQAKLTAYQTELARVQKANADAKAAYEAAVAANNAANAALTAENTAIKKRNADAKADYEAKLAKYQADLAKYQKDLADYPVKLKAYEDEQASIKAALAELEKHKNEDGNLTEPSAQNLVYDLEPNANLSLTTDGKFLKASAVDDAFSKSTSKAKYDQKILQLDDLDITNLEQSNDVASSMELYGNFGDKAGWSTTVSNNSQVKWGSVLLERGQSATATYTNLQNSYYNGKKISKIVYKYTVDPKSKFQGQKVWLGIFTDPTLGVFASAYTGQVEKNTSIFIKNEFTFYDEDGKPINFDNALLSVASLNREHNSIEMAKDYSGKFVKISGSSIGEKNGMIYATDTLNFKQGEGGSRWTMYKNSQAGSGWDSSDAPNSWYGAGAIKMSGPNNYVTVGATSATNVMPVSDMPVVPGKDNTDGKKPNIWYSLNGKIRAVNVPKVTKEKPTPPVKPTAPTKPTYETEKPLKPAPVAPNYEKEPTPPTRLEHHHHHH
# Tests used:
# Assay in all cases: glycan array binding signal (z-score within array); higher = stronger binding
# Conditions in all cases: glycan notation: IUPAC condensed, linker removed
# [1] = target: Gal(b1-3)GlcNAc(b1-2)Man(a1-3)[Gal(b1-3)GlcNAc(b1-2)Man(a1-6)]Man(b1-4)GlcNAc(b1-4)[Fuc(a1-6)]GlcNAc
# Procedure, shortened: (§1)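 The Consortium for Functional Glycomics database supplied 3228 glycan arrays, of which those lacking an available protein sequence were dropped. The binding signal, a within-array Z-score, was averaged across arrays of the same protein sequence and across linkers. Negative scores can be read as non-binding.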
# [2] = target: Gal(b1-3)GlcNAc(b1-2)Man(a1-3)[GlcNAc(b1-4)][Gal(b1-3)GlcNAc(b1-2)Man(a1-6)]Man(b1-4)GlcNAc(b1-4)GlcNAc
# Procedure, shortened: as §1
# [3] = target: Gal(b1-3)GlcNAc(b1-2)[Gal(b1-3)GlcNAc(b1-6)]Man(a1-6)[Gal(b1-3)GlcNAc(b1-2)Man(a1-3)]Man(b1-4)GlcNAc(b1-4)GlcNAc
# Procedure, shortened: as §1
# [4] = target: Gal(b1-3)GlcNAc(b1-3)Gal(b1-3)GlcNAc
# Procedure, shortened: as §1
# [5] = target: Gal(b1-3)GlcNAc(b1-3)Gal(b1-4)Glc
# Procedure, shortened: as §1
# [6] = target: Gal(b1-3)GlcNAc(b1-3)Gal(b1-4)GlcNAc
# Procedure, shortened: as §1
# [7] = target: Gal(b1-3)GlcNAc(b1-3)Gal(b1-4)GlcNAc(b1-2)Man(a1-3)[Gal(b1-3)GlcNAc(b1-3)Gal(b1-4)GlcNAc(b1-2)Man(a1-6)]Man(b1-4)GlcNAc(b1-4)GlcNAc
# Procedure, shortened: as §1
# [8] = target: Gal(b1-3)GlcNAc(b1-3)Gal(b1-4)GlcNAc(b1-2)[Gal(b1-3)GlcNAc(b1-3)Gal(b1-4)GlcNAc(b1-6)]Man(a1-6)[Gal(b1-3)GlcNAc(b1-3)Gal(b1-4)GlcNAc(b1-2)Man(a1-3)]Man(b1-4)GlcNAc(b1-4)[Fuc(a1-6)]GlcNAc
# Procedure, shortened: as §1
# [9] = target: Gal(b1-3)GlcNAc(b1-3)Gal(b1-4)GlcNAc(b1-3)Gal(b1-4)GlcNAc(b1-2)[Gal(b1-3)GlcNAc(b1-3)Gal(b1-4)GlcNAc(b1-3)Gal(b1-4)GlcNAc(b1-6)]Man(a1-6)[Gal(b1-3)GlcNAc(b1-3)Gal(b1-4)GlcNAc(b1-3)Gal(b1-4)GlcNAc(b1-2)Man(a1-3)]Man(b1-4)GlcNAc(b1-4)[Fuc(a1-6)]GlcNAc
# Procedure, shortened: as §1
# [10] = target: Gal(b1-3)GlcNAc(b1-3)Gal(b1-4)GlcNAc(b1-6)[Gal(b1-3)GlcNAc(b1-3)]Gal(b1-4)Glc
# Procedure, shortened: as §1
# [11] = target: Gal(b1-3)GlcNAc(b1-3)Gal(b1-4)[Fuc(a1-3)]GlcNAc
# Procedure, shortened: as §1
# [12] = target: Gal(b1-3)GlcNAc(b1-3)Gal(b1-4)[Fuc(a1-3)]GlcNAc(b1-6)[Gal(b1-3)GlcNAc(b1-3)]Gal(b1-4)Glc
# Procedure, shortened: as §1
# [13] = target: Gal(b1-3)GlcNAc(b1-3)GalNAc
# Procedure, shortened: as §1
# [14] = target: Gal(b1-3)GlcNAc(b1-6)Gal(b1-4)GlcNAc
# Procedure, shortened: as §1
# [15] = target: Gal(b1-3)GlcNAc(b1-6)GalNAc
# Procedure, shortened: as §1
# [16] = target: Gal(b1-3)GlcNAc(b1-6)[Gal(b1-3)]GalNAc
# Procedure, shortened: as §1
# Gal(b1-3)GlcNAc6S = target: Gal(b1-3)GlcNAc6S
# Procedure, shortened: as §1
# [17] = target: Gal(b1-3)[Fuc(a1-4)]GlcNAc
# Procedure, shortened: as §1
# [18] = target: Gal(b1-3)[Fuc(a1-4)]GlcNAc(b1-2)Man
# Procedure, shortened: as §1
# [19] = target: Gal(b1-3)[Fuc(a1-4)]GlcNAc(b1-2)Man(a1-3)[Gal(b1-3)[Fuc(a1-4)]GlcNAc(b1-2)Man(a1-6)]Man(b1-4)GlcNAc(b1-4)[Fuc(a1-6)]GlcNAc
# Procedure, shortened: as §1
# [20] = target: Gal(b1-3)[Fuc(a1-4)]GlcNAc(b1-3)Gal(b1-3)[Fuc(a1-4)]GlcNAc
# Procedure, shortened: as §1
# [21] = target: Gal(b1-3)[Fuc(a1-4)]GlcNAc(b1-3)Gal(b1-4)[Fuc(a1-3)]GlcNAc
# Procedure, shortened: as §1
# [22] = target: Gal(b1-3)[Fuc(a1-4)]GlcNAc(b1-6)GalNAc
# Procedure, shortened: as §1
# [23] = target: Gal(b1-3)[GlcNAc(b1-6)]GalNAc
# Procedure, shortened: as §1
# [24] = target: Gal(b1-3)[Neu5Ac(a2-6)]GalNAc
# Procedure, shortened: as §1
# [25] = target: Gal(b1-3)[Neu5Ac(a2-6)]GlcNAc(b1-4)Gal(b1-4)Glc
# Procedure, shortened: as §1
# [26] = target: Gal(b1-3)[Neu5Ac(b2-6)]GalNAc
# Procedure, shortened: as §1
# Gal(b1-4)Gal = target: Gal(b1-4)Gal
# Procedure, shortened: as §1
# [27] = target: Gal(b1-4)GalNAc(a1-3)[Fuc(a1-2)]Gal(b1-4)GlcNAc
# Procedure, shortened: as §1
# [28] = target: Gal(b1-4)GalNAc(b1-3)[Fuc(a1-2)]Gal(b1-4)GlcNAc
# Procedure, shortened: as §1
# Gal(b1-4)Glc = target: Gal(b1-4)Glc
# Procedure, shortened: as §1
# Gal(b1-4)Glc6S = target: Gal(b1-4)Glc6S
# Procedure, shortened: as §1
# Gal(b1-4)GlcNAc = target: Gal(b1-4)GlcNAc
# Procedure, shortened: as §1
# [29] = target: Gal(b1-4)GlcNAc(a1-6)Gal(b1-4)GlcNAc
# Procedure, shortened: as §1
# Gal(b1-4)GlcNAc(b1-2)Man = target: Gal(b1-4)GlcNAc(b1-2)Man
# Procedure, shortened: as §1
# [30] = target: Gal(b1-4)GlcNAc(b1-2)Man(a1-3)Man(b1-4)GlcNAc(b1-4)GlcNAc
# Procedure, shortened: as §1
# [31] = target: Gal(b1-4)GlcNAc(b1-2)Man(a1-3)[Gal(b1-4)GlcNAc(b1-2)Man(a1-6)]Man(b1-4)GlcNAc(b1-4)GlcNAc
# Procedure, shortened: as §1
binder,measurement,setting,value
B1,glycan array binding signal (z-score),[1],0.484
same,glycan array binding signal (z-score),[2],1.13
same,glycan array binding signal (z-score),[3],0.815
same,glycan array binding signal (z-score),[4],1.59
same,glycan array binding signal (z-score),[5],-0.068
same,glycan array binding signal (z-score),[6],0.485
same,glycan array binding signal (z-score),[7],-0.072
same,glycan array binding signal (z-score),[8],1.15
same,glycan array binding signal (z-score),[9],5.61
same,glycan array binding signal (z-score),[10],-1.08
same,glycan array binding signal (z-score),[11],-0.402
same,glycan array binding signal (z-score),[12],-0.769
same,glycan array binding signal (z-score),[13],-0.215
same,glycan array binding signal (z-score),[14],-0.879
same,glycan array binding signal (z-score),[15],-1.15
same,glycan array binding signal (z-score),[16],-0.091
same,glycan array binding signal (z-score),Gal(b1-3)GlcNAc6S,0.094
same,glycan array binding signal (z-score),[17],-0.532
same,glycan array binding signal (z-score),[18],0.065
same,glycan array binding signal (z-score),[19],0.264
same,glycan array binding signal (z-score),[20],-1.39
same,glycan array binding signal (z-score),[21],0.182
same,glycan array binding signal (z-score),[22],3.1
same,glycan array binding signal (z-score),[23],0.649
same,glycan array binding signal (z-score),[24],-0.775
same,glycan array binding signal (z-score),[25],-0.671
same,glycan array binding signal (z-score),[26],-1.08
same,glycan array binding signal (z-score),Gal(b1-4)Gal,0.659
same,glycan array binding signal (z-score),[27],-0.098
same,glycan array binding signal (z-score),[28],-1.5
same,glycan array binding signal (z-score),Gal(b1-4)Glc,0.298
same,glycan array binding signal (z-score),Gal(b1-4)Glc6S,1.2
same,glycan array binding signal (z-score),Gal(b1-4)GlcNAc,-0.744
same,glycan array binding signal (z-score),[29],1.05
same,glycan array binding signal (z-score),Gal(b1-4)GlcNAc(b1-2)Man,0.599
same,glycan array binding signal (z-score),[30],-0.226
same,glycan array binding signal (z-score),[31],-1.12

# Random excerpt: two entries already listed.
binder,measurement,setting,value
B1,glycan array binding signal (z-score),[7],-0.072
same,glycan array binding signal (z-score),[17],-0.532
